Reference: patent US11986466B2, “Methods of treating solid tumors with CCR2 antagonists” (CHEMOCENTRYX, INC., priority 2018, dated 2024)
“Also recorded” adds a separate entry of the source.

Assay: H&E histology and appearance of tumor-bearing ears
Assay type: in vivo, C57BL/6 mice
Settings: one week (day 7) of treatment, vs vehicle
Procedure: FIG. 4A-D. Enhanced inflammation is associated with CCR2 antagonism by Compound 1 in the tumor microenvironment. (A, B) Ear tissues were collected from mice treated by Compound 1 (60 mg/kg) or vehicle on day 7. Representative images for HE sections and IHC staining with anti-F4/80 were shown for the ear tissues from Compound 1 and vehicle treated group. (C, D) Ears from day 7 were also analyzed by flow cytometry to quantify the numbers of the two major myeloid subpopulations in TME with antibodies for CD11b, F4/80 and Ly6G.
H&E and Histoimmunochemistry. After mouse ear tumors were surgically removed at the ear base, the ear sample was cut into two parts along the long axis and placed in RNA later for RNA extraction or into 10% formalin for hematoxylin and eosin (H&E) staining or immunohistochemical staining with purified mouse antibodies (anti-CD8 and anti-F4/80 from Biolegend, San Diego, CA).

SMILES: C[C@H]1CN([C@@H]2CC[C@@](C(=O)N3COc4c(cc(C(F)(F)F)cc4C(F)(F)F)C3)(C3CC3)OC2)CC[C@@H]1c1cccc(C(=O)O)c1 [Compound 1]
- skin inflammation / lesions at the tumor site: neutrophilic abscesses and epidermal ulceration occurred; also recorded: significantly enhanced skin inflammation
